The text below walks through data of patent US12707888B2, “Asymmetric donor-acceptor molecular dyes” (THE UNIVERSITY OF NORTH CAROLINA AT CHARLOTTE, priority 2019, dated 2026).

The series deals with HEK 293T cells. The series can be described thus: Cellular localization time-lapse imaging vs CellMask red. The following applies: for decrease of plasma membrane fluorescence intensity normalized to CellMask red / TTz internalization (normalized intensity of intracellular membranes): 500 nM dye. Type of series: cell-based, Human.

For `CCCCN(CCCC)c1ccc(-c2nc3sc(-c4ccncc4)nc3s2)cc1` [Bu2N-TTz-Py, 2-(N,N-dibutyl-4-aminophenyl)-5-(4-pyridyl) thiazolo[5,4-d]thiazole], the “decrease of plasma membrane fluorescence intensity normalized to CellMask red” value runs as follows: (after 50 min) 2.5%; (after 110 min) 26%. Further, the “TTz internalization (normalized intensity of intracellular membranes)” value runs as follows: (over 50 min) less than 1%; (over 130 min) 5%. Also, the “dye internalization (time lapsed images)” value (over 130 min, compared to CellMask Red) is “minimal dye internalization”.
